Reference: PubChem BioAssay AID504467 (National Center for Advancing Translational Sciences (NCATS), 2011)
Out of some 330,000 compounds screened, about 7,700 (2.3%) were called active. Inconclusive results, whose numbers are uncertain, are shown with a selection of clear calls. Calls follow the shape of the dose curve; as a rule, active = well fitted inhibition curve with a large enough effect; inconclusive = small, poorly fitted or top-dose-only effect, or effect the other way; inactive = flat fitted curve, though single readings scatter. Potencies of inconclusive entries are doubtful fits and often do not repeat.

Assay: qHTS screen for small molecules that inhibit ELG1-dependent DNA repair in human embryonic kidney (HEK293T) cells expressing luciferase-tagged ELG1; also: nearly all actives have a fitted effect of over 55% in size
Conditions: HEK293T ELG1-luciferase reporter, luminescence, 16 h, DNA damage induced by 5-fluorouridine; activity change, negative = inhibition: at 46.1 µM (top of the series)
How it was run: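 In this reporter screen, reduction of luminescence relative to DMSO vehicle indicated activity. Compounds and 5-fluorouridine were added together to 2,000 cells per well, incubated for 16 hr at 37 °C, then developed with ONE-Glo.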
% is scaled to controls: 0 for no effect and ±100 for the full control effect; potency is read from the fitted curve at half-maximal effect.

SMILES | activity change, negative = inhibition | Potency
Cc1nn(CC(=O)NCc2cccc(F)c2)c(=O)c2cccn12 | inactive: 0% | 
Cc1ccc(N2CC(C(=O)Nc3ccc(S(=O)(=O)N4CCCC4)cc3)CC2=O)cc1 (stereo not given) | inactive: -0.958% | 
COCC(=O)N1CCCc2ccccc21 |  | inconclusive: 29.1 µM [activator, single point]
CN(C)c1ccc(/C=N/N=C(N)N)cc1[N+](=O)[O-] | inactive: -9% | 
O=C1OC(Nc2ccc3c(c2)OCO3)c2ccccc21 (stereo not given) |  | inconclusive: 18.4 µM [inhibitor, single point]
Cc1ccc(N=Nc2ccc(O)c3ncccc23)cc1 |  | inconclusive: 4.11 µM [activator, single point]
O=C(COC(=O)C12CC3CC(CC(C3)C1)C2)Nc1ccc([N+](=O)[O-])cc1Br |  | inconclusive: 20.6 µM [inhibitor, partial curve]
O=[N+]([O-])c1cccnc1Sc1n[nH]c(-c2ccc(Cl)cc2)n1 |  | inconclusive: 25.9 µM [activator, single point]
CCc1ncc(CN2CCC(C(=O)Nc3cccc(-c4cscn4)c3)CC2)cn1 |  | inconclusive: 23.1 µM [inhibitor, partial curve, poor fit]
Clc1ccccc1-c1nnc(-c2ccc3c(c2)OCO3)o1 |  | inconclusive: 2.91 µM [activator, full curve]
COCCOC(=O)c1c(NC(=O)CN2CCCc3ccccc32)sc(C(N)=O)c1C |  | active: 7.31 µM
CN1CCN(C(=O)C2=C[C@@H](c3ccccc3)C[C@@H](OCc3ccc(CO)cc3)O2)CC1 |  | inconclusive: 23.1 µM [inhibitor, partial curve, poor fit]
CCCC(C)NC1=NCCCCC1 (stereo not given) |  | inconclusive: 35.5 µM [activator, single point]
CCCCC(CC)C1OCC(C[N+]2(C)CCOCC2)O1 (stereo not given) |  | inconclusive: 29.1 µM [activator, partial curve, poor fit]
CCOC(=O)c1cnc2ccc(F)cc2c1Nc1ccc2c(c1)OCCO2 |  | inconclusive: 23.1 µM [inhibitor, single point]
Cc1ccc(Oc2cc(NC(=O)CCCn3nc([N+](=O)[O-])cc3C)cc([N+](=O)[O-])c2)cc1 |  | inconclusive: 23.1 µM [inhibitor, single point]
CCOC(=O)C1CCN(C(=O)c2cc3cc4ccc(C)cc4nc3o2)CC1 |  | inconclusive: 2.06 µM [activator, full curve]
CSc1nc(-c2ccccc2)nn1C(=O)c1ccccc1 | inactive: 14.1% | 
CC(Nc1ccccc1N1CCCCC1)C(=O)N1CCc2ccccc21 (stereo not given) |  | inconclusive: 20.6 µM [inhibitor, single point]
CCCCCn1c(=NC(=O)c2ccco2)c(C(=O)OCC)cc2c(=O)n3ccccc3nc21 |  | inconclusive: 25.9 µM [inhibitor, single point]
CCOC(=O)C1C(=O)C=C(c2ccc(C)cc2)CC1c1ccc([N+](=O)[O-])cc1 (stereo not given) |  | inconclusive: 29.1 µM [inhibitor, single point]
Cc1ccc(Cl)cc1NC(=O)NCc1cccnc1 | inactive: -4.85% | 
COc1ccc(Cn2c(C3CC3)nc3ccc(NC(=O)C4CC4)cc3c2=O)cc1 |  | inconclusive: 3.16 µM [activator, partial curve]

SMILES | activity change, negative = inhibition | Potency
Fc1ccccc1NC(=S)N1CCN(Cc2ccc3c(c2)OCO3)CC1 |  | inconclusive: 29.1 µM [inhibitor, single point]
Cc1nc2ccc(-c3nc4ccccc4[nH]3)cc2[nH]1 |  | inconclusive: 2.31 µM [activator, full curve]
Cc1ccc(-n2nnnc2Sc2ccc(S(=O)(=O)NCCN(C)C)cc2[N+](=O)[O-])cc1 |  | inconclusive: 2.31 µM [inhibitor, partial curve]
CN(C)/C=C(\C(=O)c1ccccc1)c1nnnn1-c1ccccc1 | inactive: -3.37% | 
Clc1ccc2nc(-c3ccccc3)nc(C(Cl)Cl)c2c1 |  | active: 2.31 µM
Cc1ccc(CNC(=O)CCCc2cn(C)c3ccccc23)cc1 | inactive: -13.1% | 
COc1ccc(Cc2nc3ccc(C(=O)NC(C)Cc4ncccc4C)cc3o2)cc1OC (stereo not given) |  | inconclusive: 16.4 µM [inhibitor, single point]
CCOCc1c(C(=O)NCc2ccccc2CN2CCCC2)oc2ccccc12 |  | inconclusive: 22.4 µM [inhibitor, single point]
CCc1cc2c(=O)c(Oc3ccccc3)c(C)oc2cc1O |  | inconclusive: 20.6 µM [inhibitor, partial curve, poor fit]
O=C(CN1C(=O)C(=O)N(C2CCCC2)C1=O)Nc1cc(Cl)ccc1[N+](=O)[O-] | inactive: 14% | 
O=C(Nc1ccc(N2CCN(C(=O)c3ccco3)CC2)cc1)c1ccco1 | inactive: 6.02% | 
Cc1ccc(NC(=O)c2ccc(N3CCCC3=O)cc2)cc1S(=O)(=O)N1CCCCC1 | inactive: 25.2% | 
COc1ccccc1N1CCN(C(CNC(=O)C2CCCCC2)c2cccnc2)CC1 (stereo not given) | inactive: -13.8% | 
CC1C(=O)NC(=O)C1c1ccccc1 (stereo not given) |  | inconclusive: 18.3 µM [activator, partial curve, poor fit]
O=C(CCCN1C(=O)c2ccccc2C1=O)Nc1ccc(S(=O)(=O)N2CCCCC2)cc1 | inactive: -28.3% | 
Clc1ccc2nc(-c3ccccn3)c(Nc3ccc4c(c3)OCO4)n2c1 |  | inconclusive: 25.9 µM [inhibitor, partial curve, poor fit]
CCOc1ccc(-c2ccc(SCC(=O)N3CCOCC3)nn2)cc1 |  | inconclusive: 32.6 µM [inhibitor, single point]
Cc1cccc(NS(=O)(=O)c2ccc(C(=O)N3CCN(c4ccccc4O)CC3)cc2)c1C |  | active: 20.6 µM
COc1ccc(-c2csc(NCc3ccco3)n2)cc1C |  | inconclusive: 9.2 µM [activator, partial curve]
Cc1nc(N)sc1-c1csc(Nc2ccc(Cl)cn2)n1 |  | inconclusive: 25.9 µM [inhibitor, single point]
CCS(=O)(=O)N1Cc2ccccc2CC1C(=O)Nc1cccc(C)c1 (stereo not given) |  | inconclusive: 29.1 µM [activator, single point]
OCC(O)CN1CCCC1 (stereo not given) | inactive: 15.4% | 

3 entries drawn at random from those above:
SMILES | activity change, negative = inhibition | Potency
Cc1ccc(Cl)cc1NC(=O)NCc1cccnc1 | inactive: -4.85% | 
CCOC(=O)C1C(=O)C=C(c2ccc(C)cc2)CC1c1ccc([N+](=O)[O-])cc1 (stereo not given) |  | inconclusive: 29.1 µM [inhibitor, single point]
O=C1OC(Nc2ccc3c(c2)OCO3)c2ccccc21 (stereo not given) |  | inconclusive: 18.4 µM [inhibitor, single point]
